# Experimental data published in patent US20230172930A1, “USE OF COMPLEMENT FACTOR D INHIBITORS ALONE OR IN COMBINATION WITH ANTI-C5 ANTIBODIES FOR TREATMENT OF PAROXYSMAL NOCTURNAL HEMOGLOBINURIA” (Alexion Pharmaceuticals, Inc., priority 2020, published 2023).
# At least one structure is not confirmed: it was looked up by name or label, or the drawing left a doubt.
# Experiments:
# Format in all cases: in vivo, human
# [1] = test system: PNH patients with an inadequate response to eculizumab; assay: Phase 2 open-label study of danicopan added to eculizumab: laboratory markers of PNH (Hgb, LDH, reticulocytes, bilirubin)
# Description: All doses were taken approximately 15-30 minutes after completion of a meal or snack. Dose escalations, to a maximum of 200 mg three times a day, were based on safety and hemoglobin values and permitted at 4-week intervals through week 12 at 50 mg increments. If the patient had not already reached the 200 mg three times daily maximal dose by week 12, escalation was permitted if clinically indicated. […] Patients completing treatment with clinical benefit entered a long-term extension phase.
# Descriptive statistics are provided for biochemical, quality-of-life measurements, and transfusion data. Continuous variables are summarized with mean, median, minimum and maximum values. Categorical variables, e.g., transfusion-independent, are summarized with counts and percentages. Missing values were not imputed.
# serum AP activity = assay: Phase 2 study: serum AP activity with AP hemolysis assay; conditions: after dosing danicopan vs baseline
# FD = assay: Phase 2 study: serum FD concentration; conditions: during danicopan treatment; normal at baseline
# Bb = assay: Phase 2 study: plasma Bb concentration; conditions: after dosing with danicopan
# C3 = assay: Phase 2 study: serum C3 concentration; conditions: during danicopan treatment; normal at baseline
# serum CP activity = assay: Phase 2 study: serum CP activity; conditions: at baseline on eculizumab; persisted throughout the study
smiles,measurement,setting,value
"CC(=O)c1nn(CC(=O)N2C[C@H](F)C[C@H]2C(=O)Nc2cccc(Br)n2)c2ccc(-c3cnc(C)nc3)cc12 [Danicopan, danicopan]",reticulocyte count,"[1]; Week 24, in words",reduced to near normal
same,Total bilirubin,"[1]; Week 24 versus baseline, in words",driven into normal range
same,residual AP activity (AP hemolysis assay),serum AP activity,reduced
same,serum FD concentration,FD,little change
same,plasma Bb level,Bb,reduced
same,serum C3 concentration,C3,little change
same,inhibition of CP activity,serum CP activity,near complete
